# Assay results: patent publication US5440012A, “Calcitonin and method for the preparation and use thereof” (Sumitomo Metal Industries, Ltd., priority 1991, dated 1995)
# Not every detail of the peptide structures is certain; ends, links or a residue may be inferred. Positions of bridges follow the written chain, without caps; N, C: chain ends. Residues, ends and D or L forms follow the SMILES beside them.
# Columns and labels:
# blood calcium level = details: in humans; cited from earlier work
# [1] = tested on: grown cartilage cell culture of rabbit costal cartilage; experiment: Alkaline phosphatase activity per protein in rabbit costal cartilage cell culture (chondrocyte differentiation); type: cell-based; details: 10 μl of 10^-12 mol/ml calcitonin solution added on fourth and sixth days, 9 days incubation; control about 88,150
# Protocol: When their physiological activities on cartilage cells or chondrocytes were determined according to the technique of Bessey et al (J. Biol. Chem. 164: 321-329, 1964) and that of Lowry et al (J. Biol. Chem. 193: 265-275, 1951), a strong cell differentiation-promoting activity was noted. […]
# After incubation for 9 days, the cell layer (1) was recovered and the alkaline phosphatase activity in each well was determined by the method of Bessey et al (J. Biol. Chem. 164: 321-329, 1946) using p-nitrophenylphosphoric acid as a substrate.
# The amount of protein in each well was also determined by assaying the recovered cell layer (1) in accordance with the method of Lowry et al (J. Biol. Chem. 193: 265-275, 1951) using bovine serum albumin as a standard substance.
# The value for alkaline phosphatase activity per unit weight of protein was calculated from the values for alkaline phosphatase activity and amount of protein determined as above. The calculated value of the control was about 88,150 nmol/30 min/mg-protein. […]
# [2] = tested on: concentration of calcium in the serum; experiment: Blood calcium-decreasing activity in rats (serum calcium, parallel line assay); type: in vivo, Male Wistar rats; details: intravenous, 1 pmol or 10 pmol per animal, serum calcium one hour after administration, salmon and eel calcitonin used as standard substances
# Protocol: The physiological activities of the pure naturally-occurring stingray calcitonin extracted from the ultimobranchial gland of a stingray and those of synthetic stingray calcitonin obtained in the above-described manner were determined according to the technique of Homma et al (J. Biochem. 100: 459-467, 1986).
# Male Wistar rats weighing 90-110 grams (10 animals in each group) which had fasted for 24 hours prior to the experiment were intravenously injected with a standard solution of salmon calcitonin or eel calcitonin or a solution of the synthetic stingray calcitonin (produced in Example 2) each dissolved in an aqueous 0.9% sodium chloride solution (pH 4.6) containing 0.1% bovine serum albumin at a dose of 1 pmol or 10 pmol per animal. Exactly one hour after the administration, a blood sample was collected from the artery of each test animal and the concentration of calcium in the serum was determined by atomic absorption spectroscopy. Based on the values for serum calcium concentration in rats of the groups in which one of the standard solutions was administered at a dose of 1 pmol or 10 pmol per animal and those in rats of the group in which the stingray calcitonin of the present invention was administered at the same dose, the relative titer of the stingray calcitonin was determined by the standard statistical procedures for parallel line assays. […]
SMILES,activity for decreasing the blood calcium level relative to human calcitonin (blood calcium level),alkaline phosphatase activity per unit weight of protein [1],titer (blood calcium-decreasing activity) [2]
CC(C)C[C@H](NC(=O)[C@H](CCCCN)NC(=O)CNC(=O)[C@H](CC(C)C)NC(=O)[C@@H](NC(=O)[C@@H]1CSSC[C@H](N)C(=O)N[C@@H](CO)C(=O)N[C@@H](CC(N)=O)C(=O)N[C@@H](CC(C)C)C(=O)N[C@@H](CO)C(=O)N[C@@H]([C@@H](C)O)C(=O)N1)C(C)C)C(=O)N[C@@H](CO)C(=O)N[C@@H](CCC(N)=O)C(=O)N[C@@H](CCC(=O)O)C(=O)N[C@@H](CC(C)C)C(=O)N[C@@H](Cc1c[nH]cn1)C(=O)N[C@@H](CCCCN)C(=O)N[C@@H](CC(C)C)C(=O)N[C@@H](CCC(N)=O)C(=O)N[C@H](C(=O)N[C@@H](Cc1ccc(O)cc1)C(=O)N1CCC[C@H]1C(=O)N[C@@H](CCCNC(=N)N)C(=O)N[C@H](C(=O)N[C@@H](CC(N)=O)C(=O)N[C@H](C(=O)NCC(=O)N[C@@H](CO)C(=O)NCC(=O)N[C@H](C(=O)N1CCC[C@H]1C(N)=O)[C@@H](C)O)[C@@H](C)O)[C@@H](C)O)[C@@H](C)O [salmon calcitonin],about 30 times,"about 95,000 nmol/30 min/mg-protein",about 3500 IU/mg
CC(C)C[C@H](NC(=O)[C@H](CCCCN)NC(=O)CNC(=O)[C@H](CC(C)C)NC(=O)[C@@H](NC(=O)[C@@H]1CSSC[C@H](N)C(=O)N[C@@H](CO)C(=O)N[C@@H](CC(N)=O)C(=O)N[C@@H](CC(C)C)C(=O)N[C@@H](CO)C(=O)N[C@@H]([C@@H](C)O)C(=O)N1)C(C)C)C(=O)N[C@@H](CO)C(=O)N[C@@H](CCC(N)=O)C(=O)N[C@@H](CCC(=O)O)C(=O)N[C@@H](CC(C)C)C(=O)N[C@@H](Cc1c[nH]cn1)C(=O)N[C@@H](CCCCN)C(=O)N[C@@H](CC(C)C)C(=O)N[C@@H](CCC(N)=O)C(=O)N[C@H](C(=O)N[C@@H](Cc1ccc(O)cc1)C(=O)N1CCC[C@H]1C(=O)N[C@@H](CCCNC(=N)N)C(=O)N[C@H](C(=O)N[C@@H](CC(=O)O)C(=O)N[C@H](C(=O)NCC(=O)N[C@@H](C)C(=O)NCC(=O)N[C@H](C(=O)N1CCC[C@H]1C(N)=O)[C@@H](C)O)C(C)C)[C@@H](C)O)[C@@H](C)O [eel calcitonin] (H-CSNLSTCVLGKLSQELHKLQTYPRTDVGAGTP-NH2; disulfide 1-7),–,"about 103,000 nmol/30 min/mg-protein",about 4500 IU/mg
